The values that follow come from publication PMC4472782, “Antibacterial Characterization of Novel Synthetic Thiazole Compounds against Methicillin-Resistant Staphylococcus pseudintermedius” (PLoS ONE, 2015).

Structures are written as SMILES. Counter-ions that a name gives are not always drawn.

The data set has as its system murine macrophage cell line (J774.A1). Description: In vitro cytotoxicity analysis (MTS assay). The note with it: 10 μg/mL, J774.A1, two hours. The class given is cell-based. As for the experimental part:
Compounds were assayed at concentrations of 5 μg/mL, 10 μg/mL, 20 μg/mL, and 40 μg/mL against a murine macrophage cell line (J774.A1) (ATCC TIB-67, American Type Culture Collection (ATCC), Manassas, VA, USA) to determine the potential toxic effect in vitro. Cells were cultured in Dulbeco’s modified Eagle’s medium (Sigma-Aldrich, St. Louis, MO, USA) with 10% fetal bovine serum (USA Scientific, Inc.) at 37°C with 5% CO2. Controls received DMSO alone at a concentration equal to that in drug-treated cell samples. The cells were incubated with the compounds in a 96-well plate at 37°C and 5.0% CO2 for two hours prior to addition of the assay reagent MTS 3-(4,5-dimethylthiazol-2-yl)-5-(3-carboxymethoxyphenyl)-2-(4-sulfophenyl)-2H-tetrazolium) (Promega, Madison, WI, USA). Absorbance readings were taken using a kinetic ELISA microplate reader (Molecular Devices, Sunnyvale, CA, USA). The quantity of viable cells after treatment with each compound was expressed as a percentage of the control, DMSO.
All statistical analyses were performed with GraphPad Prism 6.0 (GraphPad Software, La Jolla, CA). Data generated from cytotoxicity analysis of the thiazole compounds against J774.A1 cells and the 260 and 280 nm cell leakage analysis were analyzed using one-way ANOVA, with post hoc Tukey's multiple comparisons test (P < 0.05).
In general terms: Tetrazolium dyes change colour on reduction, which living cells bring about.

With `CCC[C@@H]1C[C@@H](C(=O)N[C@@H]([C@H]2O[C@H](SC)[C@H](O)[C@@H](O)[C@H]2O)[C@H](C)Cl)N(C)C1` [Clindamycin, Clindamycin hydrochloride monohydrate, reference compound], the “toxicity to murine macrophage cells (MTS assay)” value is recorded as “not toxic”.
